# The exact form of at least one protein or probe is not confirmed. The comparison behind a weaker result is the experiment's own reference, which may not be listed here.
# Columns and labels:
# [1] = molecular target: human serum albumin (HSA) (Homo sapiens) (UniProt P02768); test: flow cytometry on HSA-coated beads; conditions: 5 mM Mg2+, 'rarely binds to HSA'; cells: DPBS, 4.5 g/L glucose, 5 mM MgCl2, 0.1 mg/ml yeast tRNA, 1 mg/ml BSA, 4 C, 30 min; pH not stated; commercial protein; label: FAM; single-stranded DNA
# [2] = molecular target: human serum albumin (HSA) (Homo sapiens) (UniProt P02768); test: flow cytometry; conditions: significantly weaker than SYL3C-F20; cells: DPBS, 4.5 g/L glucose, 5 mM MgCl2, 0.1 mg/ml yeast tRNA, 1 mg/ml BSA, 4 C, 30 min; pH not stated; commercial …; label: Cy5; single-stranded DNA
Sequence,binding result [1],binding result [2]
ATCTAACTGCTGCGCCGCCGGGAAAATACTGTACGGTTAGA [Sgc8],binds more weakly,–
CACTACAGAGGTTGCGTCTGTCCCACGTTGTCATGGGGGGTTGGCCTG [SYL3C],–,binds more weakly

# Source: paper PMC8989545
